No constants are given. Whether binding was seen depends on the method and setting. Binding seen in cells or lysates may run through a third protein. Some results given as binding are weak or reduced against the parent protein; the word gives no strength. For some assays here: Where a sequence is shown, tags or fusion partners need not be part of it.
Key:
[1] = molecular target: T1, Flag-tagged TBK1 (TANK-binding kinase 1) (UniProt Q9UHD2); test: co-IP
T1 sequence: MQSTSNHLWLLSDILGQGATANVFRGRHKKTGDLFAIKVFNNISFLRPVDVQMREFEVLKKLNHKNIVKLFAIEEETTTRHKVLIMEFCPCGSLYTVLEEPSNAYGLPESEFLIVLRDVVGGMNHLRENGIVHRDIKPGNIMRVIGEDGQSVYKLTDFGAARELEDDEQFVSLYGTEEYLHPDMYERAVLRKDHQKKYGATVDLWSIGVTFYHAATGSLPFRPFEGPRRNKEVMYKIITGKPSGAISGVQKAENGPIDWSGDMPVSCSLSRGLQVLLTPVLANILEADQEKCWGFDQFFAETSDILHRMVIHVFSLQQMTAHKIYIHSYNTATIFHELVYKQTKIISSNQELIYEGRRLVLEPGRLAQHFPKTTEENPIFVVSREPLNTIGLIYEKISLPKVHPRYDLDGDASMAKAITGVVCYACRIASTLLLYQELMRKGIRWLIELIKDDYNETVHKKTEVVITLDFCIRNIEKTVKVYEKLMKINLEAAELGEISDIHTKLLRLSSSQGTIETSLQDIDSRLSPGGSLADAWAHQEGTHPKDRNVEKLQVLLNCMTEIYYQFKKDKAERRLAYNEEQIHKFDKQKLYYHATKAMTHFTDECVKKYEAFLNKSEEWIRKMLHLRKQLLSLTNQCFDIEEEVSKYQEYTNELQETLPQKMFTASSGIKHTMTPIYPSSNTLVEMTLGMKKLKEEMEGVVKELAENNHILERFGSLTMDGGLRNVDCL

[2] = molecular target: T2, TBK1 (TANK-binding kinase 1), endogenous (human (endogenous in HT1080)) (UniProt Q9UHD2); test: co-IP
T2 sequence: T1 sequence

B1: HA-tagged IKKε (enzyme, UniProt Q14164 1-716)
chain: MQSTANYLWHTDDLLGQGATASVYKARNKKSGELVAVKVFNTTSYLRPREVQVREFEVLRKLNHQNIVKLFAVEETGGSRQKVLVMEYCSSGSLLSVLESPENAFGLPEDEFLVVLRCVVAGMNHLRENGIVHRDIKPGNIMRLVGEEGQSIYKLTDFGAARELDDDEKFVSVYGTEEYLHPDMYERAVLRKPQQKAFGVTVDLWSIGVTLYHAATGSLPFIPFGGPRRNKEIMYRITTEKPAGAIAGAQRRENGPLEWSYTLPITCQLSLGLQSQLVPILANILEVEQAKCWGFDQFFAETSDILQRVVVHVFSLSQAVLHHIYIHAHNTIAIFQEAVHKQTSVAPRHQEYLFEGHLCVLEPSVSAQHIAHTTASSPLTLFSTAIPKGLAFRDPALDVPKFVPKVDLQADYNTAKGVLGAGYQALRLARALLDGQELMFRGLHWVMEVLQATCRRTLEVARTSLLYLSSSLGTERFSSVAGTPEIQELKAAAELRSRLRTLAEVLSRCSQNITETQESLSSLNRELVKSRDQVHEDRSIQQIQCCLDKMNFIYKQFKKSRMRPGLGYNEEQIHKLDKVNFSHLAKRLLQVFQEECVQKYQASLVTHGKRMRVVHETRNHLRLVGCSVAACNTEAQGVQESLSKLLEELSHQLLQDRAKGAQASPPPIAPYPSPTRKDLLLHMQELCEGMKLLASDLLDNNRIIERLNRVPAPPDV
binding [1]: binds

B2: IKKε, endogenous (enzyme, UniProt Q14164 1-716)
chain: B1 chain
binding [2]: binds

From publication doi:10.1101/2022.10.11.511671
